Construct, isoform or probe ends are uncertain for at least one entry. Where cells or extracts were used, other partners may take part. For part of these data: Negatives hold for the conditions tested. For part of these data: Protein sequences can lack the tags named with them. For part of these data: The comparison behind a weaker result is the experiment's own reference, which may not be listed here.
How the values were obtained:
Assay in all cases: pull-down
[1] = tested on: Complement C1q (C1qA/C1qB/C1qC) from plasma/serum (Homo sapiens); details: did not immunoprecipitate C1q from plasma; protein in an extract; label: biotin; single-stranded DNA; variant of 83S-B1 full
[2] = biological target: Heterogeneous nuclear ribonucleoprotein A1 (Homo sapiens) (UniProt P09651); details: Ramos cells, protein in an extract, label: biotin, single-stranded DNA
[3] = biological target: T1, NHP2-like protein 1 (Homo sapiens) (UniProt P55769); details: Ramos cells, protein in an extract, label: biotin, single-stranded DNA
T1 sequence (looked up, limits assumed): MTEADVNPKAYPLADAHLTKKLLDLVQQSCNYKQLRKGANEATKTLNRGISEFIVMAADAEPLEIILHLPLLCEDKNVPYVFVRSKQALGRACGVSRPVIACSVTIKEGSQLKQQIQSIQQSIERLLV

[4] = biological target: E3 SUMO-protein ligase RanBP2 (Homo sapiens) (UniProt P49792); details: protein in an extract; label: biotin; single-stranded DNA
[5] = biological target: Heterogeneous nuclear ribonucleoproteins C1/C2 (Homo sapiens) (UniProt P07910); details: Ramos cells, protein in an extract, label: biotin, single-stranded DNA
[6] = biological target: Heterogeneous nuclear ribonucleoproteins A2/B1 (Homo sapiens) (UniProt P22626); details: Ramos cells, protein in an extract, label: biotin, single-stranded DNA
[7] = biological target: Heterogeneous nuclear ribonucleoprotein U (hnRNP U) (Homo sapiens) (UniProt Q00839); details: Ramos cells, protein in an extract, label: biotin, single-stranded DNA
[8] = biological target: Interleukin-3 receptor subunit alpha (Homo sapiens) (UniProt P26951); details: protein on the cell surface; label: biotin; single-stranded DNA
[9] = biological target: T2, rRNA 2'-O-methyltransferase fibrillarin (Homo sapiens) (UniProt P22087); details: Ramos cells, PSM 0 and 0; protein in an extract; label: biotin; single-stranded DNA; variant of C10.36
T2 sequence (looked up, limits assumed): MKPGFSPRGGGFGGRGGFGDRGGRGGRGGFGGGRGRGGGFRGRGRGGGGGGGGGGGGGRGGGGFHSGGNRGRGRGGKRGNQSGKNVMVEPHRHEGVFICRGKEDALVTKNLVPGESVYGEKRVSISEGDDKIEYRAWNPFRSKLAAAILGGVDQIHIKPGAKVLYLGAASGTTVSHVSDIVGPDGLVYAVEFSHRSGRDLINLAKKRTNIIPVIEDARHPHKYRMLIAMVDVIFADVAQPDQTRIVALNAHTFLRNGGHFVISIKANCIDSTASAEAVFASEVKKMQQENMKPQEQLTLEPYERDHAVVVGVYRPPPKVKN

NONO (Homo sapiens) = NONO (Homo sapiens) (UniProt Q15233); details: Ramos cells, PSM 0 and 0; protein in an extract; label: biotin; single-stranded DNA; variant of C10.36
Nucleolin (Homo sapiens) = Nucleolin (Homo sapiens) (UniProt P19338); details: Ramos cells, PSM 0 and 0; protein in an extract; label: biotin; single-stranded DNA; variant of C10.36
[10] = biological target: Poly [ADP-ribose] polymerase 1 (Homo sapiens) (UniProt P09874); details: Ramos cells, PSM 0 and 0; protein in an extract; label: biotin; single-stranded DNA; variant of C10.36
[11] = biological target: Histone H4 (Homo sapiens) (UniProt P62805); details: Ramos cells, PSM 16 and 13; protein in an extract; label: biotin; single-stranded DNA; variant of C10.36
[12] = biological target: Splicing factor, proline- and glutamine-rich (SFPQ) (Homo sapiens) (UniProt P23246); details: Ramos cells, PSM 0 and 0; protein in an extract; label: biotin; single-stranded DNA; variant of C10.36
[13] = biological target: Histone H1.5 (Homo sapiens) (UniProt P16401); details: Ramos cells, PSM 9 and 11; protein in an extract; label: biotin; single-stranded DNA; variant of C10.36
[14] = biological target: T3, Nucleolar RNA helicase 2 (DDX21) (Homo sapiens) (UniProt Q9NR30); details: Ramos cells, PSM 0 and 0; protein in an extract; label: biotin; single-stranded DNA; variant of C10.36
T3 sequence (looked up, limits assumed): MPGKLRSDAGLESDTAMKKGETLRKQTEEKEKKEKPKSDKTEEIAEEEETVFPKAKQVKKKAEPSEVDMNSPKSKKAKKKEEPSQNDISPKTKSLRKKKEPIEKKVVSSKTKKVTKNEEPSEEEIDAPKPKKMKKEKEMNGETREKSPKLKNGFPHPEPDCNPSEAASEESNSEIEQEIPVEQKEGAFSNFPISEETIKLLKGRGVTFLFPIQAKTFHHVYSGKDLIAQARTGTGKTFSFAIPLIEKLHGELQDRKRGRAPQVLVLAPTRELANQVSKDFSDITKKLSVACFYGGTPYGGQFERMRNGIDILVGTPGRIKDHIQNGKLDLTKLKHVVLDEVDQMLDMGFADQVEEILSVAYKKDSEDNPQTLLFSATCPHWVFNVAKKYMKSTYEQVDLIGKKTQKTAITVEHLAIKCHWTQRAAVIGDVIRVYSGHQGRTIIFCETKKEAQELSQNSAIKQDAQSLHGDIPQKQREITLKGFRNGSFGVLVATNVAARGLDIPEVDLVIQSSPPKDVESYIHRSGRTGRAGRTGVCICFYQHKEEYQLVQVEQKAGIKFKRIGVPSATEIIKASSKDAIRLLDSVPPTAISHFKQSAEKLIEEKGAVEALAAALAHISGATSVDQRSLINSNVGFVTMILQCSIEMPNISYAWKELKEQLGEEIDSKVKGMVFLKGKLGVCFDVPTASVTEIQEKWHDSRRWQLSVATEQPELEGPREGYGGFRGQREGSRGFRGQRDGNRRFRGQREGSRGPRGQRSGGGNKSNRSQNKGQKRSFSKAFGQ

“CTAGCATGACTGCAGTACGTTACTATAGATGGATTGTCCGCTTTAAATCAACTATCTTACTGTCTCTTATACACATCTGACGCTGCCGACGA [B1 with reverse-complemented consensus motif]”: no binding [1].
“CTAACCCCGGGTGTGGTGGGTGGGCAGGGGGGTTAG [C10.36]”: binds ([2]; PSM 5 and 2, possibly within RNP complex); binds ([3]; PSM 7 and 5, possibly within RNP complex); binds [4]. “CTAACCCCGGGTGTGGTGGGTGGGCAGGGGGGTTAG [C10.36]”: binds ([5]; PSM 15 and 15, possibly within RNP complex); binds ([6]; PSM 6 and 3, possibly within RNP complex); binds ([7]; PSM 2 and 4, stated to be direct binding partner). “CTAACCCCGGGTGTGGTGGGTGGGCAGGGGGGTTAG [C10.36]”: binds [8].
“CTAACCCCGGGTGTGGTGGGTGGACAGGGGGGTTAG [C10.36(G24A)]”: no binding ([2]; PSM 0 and 0, variant of C10.36); no binding ([3]; PSM 0 and 0, variant of C10.36); no binding [9]. “CTAACCCCGGGTGTGGTGGGTGGACAGGGGGGTTAG [C10.36(G24A)]”: no binding (NONO (Homo sapiens)); no binding (Nucleolin (Homo sapiens)); no binding ([5]; PSM 0 and 0, variant of C10.36). “CTAACCCCGGGTGTGGTGGGTGGACAGGGGGGTTAG [C10.36(G24A)]”: no binding [10]; binds more weakly [11]; no binding [12]. “CTAACCCCGGGTGTGGTGGGTGGACAGGGGGGTTAG [C10.36(G24A)]”: binds more weakly ([6]; PSM 1 and 0, variant of C10.36); binds more weakly [13]; no binding ([7]; PSM 0 and 0, variant of C10.36). “CTAACCCCGGGTGTGGTGGGTGGACAGGGGGGTTAG [C10.36(G24A)]”: no binding [14].

Source: US20190359983
